According to publication PMC8483405:
These are yes or no findings as the source states them, for the method shown. Binding seen in cells or lysates may run through a third protein. Some entries that bind do so weakly or less than the wild type.

Tests used:
[1] = biological target: DNA topoisomerase II beta (TOP2β), endogenous (human (endogenous in HEK293T)) (UniProt Q02880); test: co-IP; lysates of HEK293T cells transfected with FLAG-BPLF1 or FLAG-BPLF1^C61A, untreated or treated with 40 μM Etoposide for 30 min; immunoprecipitated with anti-TOP2α or anti-TOP2β antibodies 3 h at 4°C, captured on protein-G beads; western blot for FLAG
[2] = biological target: DNA topoisomerase II alpha (TOP2α), endogenous (human (endogenous in HEK293T)) (UniProt P11388); test: as above
[3] = biological target: 3xFLAG-BPLF1 (amino acid 1–235), N-terminal catalytic domain of the EBV large tegument protein BPLF1 (Epstein-Barr virus) (UniProt P03186); test: co-IP; lysates of HEK293T cells transfected with FLAG-BPLF1 or FLAG-BPLF1^C61A, untreated or treated with 40 μM Etoposide for 30 min; NP40 lysis buffer; immunoprecipitated with anti-FLAG agarose 3 h at 4°C, eluted with FLAG peptide; western blot for TOP2α, TOP2β, TOP1

Row | Substance | binding [1] | binding [2] | binding [3]
1 | 3xFLAG-BPLF1 (amino acid 1–235), N-terminal catalytic domain of the EBV large tegument protein BPLF1 (from UniProt P03186 1-235) (enzyme) | binds | binds | 
2 | DNA topoisomerase I (TOP1), endogenous (from UniProt P11387 1-765) (enzyme) |  |  | no binding
3 | DNA topoisomerase II beta (TOP2β), endogenous (from UniProt Q02880 1-1626) (enzyme) |  |  | binds
